## Assay results

From PubChem BioAssay record AID504749 (NCATS, 2011).

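Malaria parasite (P. falciparum) lines kept in red blood cells; parasite DNA is measured by SYBR Green fluorescence after lysis, 72 h after compound addition.
Each compound was titrated across a series from about 0.000037 to 29 µM.
The number is the fitted AC50, the concentration giving a half-maximal change in signal; a lower value means higher potency, whether the curve shows a decrease or an increase.
Calls follow the curve class and fit quality: every row here is inconclusive, covering signal-raising curves and weak, poorly fitted, partial or highest-dose-only inhibition curves.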

Values are in nM.
Every entry below has the call inconclusive.
Only part of the assay is shown, chiefly results filed as inconclusive.
A potency from a partial, single-point or poor curve is only a rough figure.
An entry listed twice with the same setting is a separate test.

SMILES | tested on / at | potency (nM) | remark
NC(N)=NC(=O)c1nc(Cl)c(N)nc1N | CP250 | 10000 | inhibitor, single point
NC(N)=NC(=O)c1nc(Cl)c(N)nc1N | SC27B | 17782 | inhibitor, single point
NC(N)=NC(=O)c1nc(Cl)c(N)nc1N | FAB9 | 17782 | inhibitor, single point
NC(N)=NC(=O)c1nc(Cl)c(N)nc1N | CP286 | 12589 | inhibitor, single point
NC(N)=NC(=O)c1nc(Cl)c(N)nc1N | PC49 | 10000 | inhibitor, single point
NC(N)=NC(=O)c1nc(Cl)c(N)nc1N | ECU | 10000 | inhibitor, single point
NC(N)=NC(=O)c1nc(Cl)c(N)nc1N | CP291 | 16944 | inhibitor, single point
NC(N)=NC(=O)c1nc(Cl)c(N)nc1N | CP325 | 19011 | inhibitor, single point
NC(N)=NC(=O)c1nc(Cl)c(N)nc1N | ATS189 | 10000 | inhibitor, single point
NC(N)=NC(=O)c1nc(Cl)c(N)nc1N | AA1029 | 12589 | inhibitor, single point
NC(N)=NC(=O)c1nc(Cl)c(N)nc1N | CP260 | 10000 | inhibitor, single point
NC(N)=NC(=O)c1nc(Cl)c(N)nc1N | Dd2 | 10000 | inhibitor, single point
NC(N)=NC(=O)c1nc(Cl)c(N)nc1N | DIV30 | 15101 | inhibitor, single point
NC(N)=NC(=O)c1nc(Cl)c(N)nc1N | JCK | 17782 | inhibitor, single point
NC(N)=NC(=O)c1nc(Cl)c(N)nc1N | PC26 | 15101 | inhibitor, single point
NC(N)=NC(=O)c1nc(Cl)c(N)nc1N | CP335 | 19011 | inhibitor, single point
NC(N)=NC(=O)c1nc(Cl)c(N)nc1N | CP238 | 12589 | inhibitor, single point
NC(N)=NC(=O)c1nc(Cl)c(N)nc1N | CP269 | 16944 | inhibitor, single point
NC(N)=NC(=O)c1nc(Cl)c(N)nc1N | CP256 | 12589 | inhibitor, single point
CCN(CC)CCSC(=O)C(c1ccccc1)c1ccccc1 | W2 | 19011 | inhibitor, single point
CCN(CC)CCSC(=O)C(c1ccccc1)c1ccccc1 | W2 | 601.2 | inhibitor, partial curve, poor fit
CC(C)COCC(CN(Cc1ccccc1)c1ccccc1)N1CCCC1 (stereo not drawn) | DFO2036 | 3162 | inhibitor, partial curve
CC(C)COCC(CN(Cc1ccccc1)c1ccccc1)N1CCCC1 (stereo not drawn) | CP291 | 3381 | inhibitor, single point
CC(C)COCC(CN(Cc1ccccc1)c1ccccc1)N1CCCC1 (stereo not drawn) | TAB165 | 3548 | inhibitor, single point
CC(C)COCC(CN(Cc1ccccc1)c1ccccc1)N1CCCC1 (stereo not drawn) | CP203 | 4256 | inhibitor, single point
CC(C)COCC(CN(Cc1ccccc1)c1ccccc1)N1CCCC1 (stereo not drawn) | CP297 | 1901 | inhibitor, partial curve, poor fit
CC(C)COCC(CN(Cc1ccccc1)c1ccccc1)N1CCCC1 (stereo not drawn) | 7G8 | 3548 | inhibitor, single point
CC(C)COCC(CN(Cc1ccccc1)c1ccccc1)N1CCCC1 (stereo not drawn) | CP315 | 3381 | inhibitor, single point
CC(C)COCC(CN(Cc1ccccc1)c1ccccc1)N1CCCC1 (stereo not drawn) | CP260 | 3981 | inhibitor, single point
CC(C)COCC(CN(Cc1ccccc1)c1ccccc1)N1CCCC1 (stereo not drawn) | Dd2 | 2818 | inhibitor, partial curve
CC(C)COCC(CN(Cc1ccccc1)c1ccccc1)N1CCCC1 (stereo not drawn) | N140 | 3981 | inhibitor, single point
CNc1cc(OC)c(C(=O)N[C@@H]2CCN(Cc3ccccc3)[C@H]2C)cc1Cl | GB4 | 11995 | inhibitor, partial curve
CNc1cc(OC)c(C(=O)N[C@@H]2CCN(Cc3ccccc3)[C@H]2C)cc1Cl | AS120 | 14125 | inhibitor, single point
CNc1cc(OC)c(C(=O)N[C@@H]2CCN(Cc3ccccc3)[C@H]2C)cc1Cl | HB3 | 14125 | inhibitor, partial curve, poor fit
CNc1cc(OC)c(C(=O)N[C@@H]2CCN(Cc3ccccc3)[C@H]2C)cc1Cl | P93_24 | 11220 | inhibitor, single point
CNc1cc(OC)c(C(=O)N[C@@H]2CCN(Cc3ccccc3)[C@H]2C)cc1Cl | TAB165 | 7943 | inhibitor, partial curve
CNc1cc(OC)c(C(=O)N[C@@H]2CCN(Cc3ccccc3)[C@H]2C)cc1Cl | CP256 | 7080 | inhibitor, partial curve
CNc1cc(OC)c(C(=O)N[C@@H]2CCN(Cc3ccccc3)[C@H]2C)cc1Cl | CP237 | 11220 | inhibitor, single point
CNc1cc(OC)c(C(=O)N[C@@H]2CCN(Cc3ccccc3)[C@H]2C)cc1Cl | CP201 | 15101 | inhibitor, partial curve, poor fit
CNc1cc(OC)c(C(=O)N[C@@H]2CCN(Cc3ccccc3)[C@H]2C)cc1Cl | CP269 | 15101 | inhibitor, single point
CNc1cc(OC)c(C(=O)N[C@@H]2CCN(Cc3ccccc3)[C@H]2C)cc1Cl | CP305 | 16944 | inhibitor, single point
CNc1cc(OC)c(C(=O)N[C@@H]2CCN(Cc3ccccc3)[C@H]2C)cc1Cl | CP211 | 13459 | inhibitor, partial curve
CNc1cc(OC)c(C(=O)N[C@@H]2CCN(Cc3ccccc3)[C@H]2C)cc1Cl | ATS189 | 8912 | inhibitor, partial curve
CNc1cc(OC)c(C(=O)N[C@@H]2CCN(Cc3ccccc3)[C@H]2C)cc1Cl | CP215 | 19011 | inhibitor, single point
CNc1cc(OC)c(C(=O)N[C@@H]2CCN(Cc3ccccc3)[C@H]2C)cc1Cl | ICS | 5012 | inhibitor, partial curve
CNc1cc(OC)c(C(=O)N[C@@H]2CCN(Cc3ccccc3)[C@H]2C)cc1Cl | CP286 | 11220 | inhibitor, single point
CNc1cc(OC)c(C(=O)N[C@@H]2CCN(Cc3ccccc3)[C@H]2C)cc1Cl | N140 | 11220 | inhibitor, partial curve
CNc1cc(OC)c(C(=O)N[C@@H]2CCN(Cc3ccccc3)[C@H]2C)cc1Cl | DIV30 | 15101 | inhibitor, single point

The last 5 entries again:

{"smiles": "CNc1cc(OC)c(C(=O)N[C@@H]2CCN(Cc3ccccc3)[C@H]2C)cc1Cl", "tested on / at": "CP215", "potency (nM)": "19011", "remark": "inhibitor, single point"}
{"smiles": "CNc1cc(OC)c(C(=O)N[C@@H]2CCN(Cc3ccccc3)[C@H]2C)cc1Cl", "tested on / at": "ICS", "potency (nM)": "5012", "remark": "inhibitor, partial curve"}
{"smiles": "CNc1cc(OC)c(C(=O)N[C@@H]2CCN(Cc3ccccc3)[C@H]2C)cc1Cl", "tested on / at": "CP286", "potency (nM)": "11220", "remark": "inhibitor, single point"}
{"smiles": "CNc1cc(OC)c(C(=O)N[C@@H]2CCN(Cc3ccccc3)[C@H]2C)cc1Cl", "tested on / at": "N140", "potency (nM)": "11220", "remark": "inhibitor, partial curve"}
{"smiles": "CNc1cc(OC)c(C(=O)N[C@@H]2CCN(Cc3ccccc3)[C@H]2C)cc1Cl", "tested on / at": "DIV30", "potency (nM)": "15101", "remark": "inhibitor, single point"}